These results are taken from publication PMC4831152.

Sequences of proteins named here, by UniProt entry; tags and fusion partners are left off.
UniProt P12813: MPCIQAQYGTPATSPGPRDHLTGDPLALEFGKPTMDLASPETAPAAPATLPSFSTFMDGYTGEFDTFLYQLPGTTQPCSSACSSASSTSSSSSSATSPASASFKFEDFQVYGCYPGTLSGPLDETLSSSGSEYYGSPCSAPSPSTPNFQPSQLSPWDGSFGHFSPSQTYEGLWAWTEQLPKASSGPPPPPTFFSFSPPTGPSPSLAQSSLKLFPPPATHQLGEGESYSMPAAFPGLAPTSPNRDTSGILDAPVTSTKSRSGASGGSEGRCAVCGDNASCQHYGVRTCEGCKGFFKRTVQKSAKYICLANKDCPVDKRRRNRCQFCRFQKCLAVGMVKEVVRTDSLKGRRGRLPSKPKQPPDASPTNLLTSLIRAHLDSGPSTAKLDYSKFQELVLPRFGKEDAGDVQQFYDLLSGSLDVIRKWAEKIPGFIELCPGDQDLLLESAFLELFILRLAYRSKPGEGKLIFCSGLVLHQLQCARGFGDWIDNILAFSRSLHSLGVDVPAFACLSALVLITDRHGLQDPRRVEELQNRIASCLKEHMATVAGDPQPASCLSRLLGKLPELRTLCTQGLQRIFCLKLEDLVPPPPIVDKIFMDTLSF
UniProt Q04207: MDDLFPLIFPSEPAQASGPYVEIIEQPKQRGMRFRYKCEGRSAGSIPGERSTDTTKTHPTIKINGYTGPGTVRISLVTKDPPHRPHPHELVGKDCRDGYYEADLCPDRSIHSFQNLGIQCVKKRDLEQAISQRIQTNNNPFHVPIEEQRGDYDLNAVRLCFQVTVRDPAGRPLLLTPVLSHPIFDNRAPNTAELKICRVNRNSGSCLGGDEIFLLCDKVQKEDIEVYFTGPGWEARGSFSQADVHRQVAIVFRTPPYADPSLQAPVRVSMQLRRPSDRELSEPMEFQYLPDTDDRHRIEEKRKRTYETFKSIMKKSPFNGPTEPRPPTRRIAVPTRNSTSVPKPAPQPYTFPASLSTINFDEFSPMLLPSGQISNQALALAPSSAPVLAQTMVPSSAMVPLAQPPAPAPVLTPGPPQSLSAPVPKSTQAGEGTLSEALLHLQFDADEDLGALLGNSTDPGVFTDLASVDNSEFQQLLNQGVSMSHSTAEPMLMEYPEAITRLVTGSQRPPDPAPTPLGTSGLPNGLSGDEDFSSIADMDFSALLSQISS

Results are given in words; binding and its absence hold for the method and conditions named. Binding seen in cells or lysates may run through a third protein. Some results given as binding are weak or reduced against the parent protein; the word gives no strength.

The target in assay [1] is orphan nuclear receptor Nur77 (mouse (endogenous in BV-2)) (UniProt P12813). In words: co-IP; nuclear extracts (120 μg protein) of BV-2 cells, with or without 6-MP (50 μM, 16 h) pretreatment, then LPS (100 ng/ml, 60 min); IP with rabbit anti-Nur77 or rabbit anti-p65 overnight at 4 °C, protein G magnetic beads; washed in 20 mM Tris pH 7.5, 150 mM NaCl, 1 % Triton X-100; blots with anti-Nur77 and anti-p65.

The target of assay [2] is NF-κB p65 (mouse (endogenous in BV-2)) (UniProt Q04207). Described as above.

For NF-κB p65 (from UniProt Q04207 1-549), the binding entry in assay [1] is given as “binds”.

For “orphan nuclear receptor Nur77 (from UniProt P12813 1-601)”, in assay [2], the binding entry is “binds”.
